Measured values published in patent US20250270256A1 (CELLICON LAB INC., priority 2021, published 2025).
Strings that start with PEPTIDE1 are HELM notation: dots part the residues, brackets hold end groups and non-standard residues.

Experiment: general procedure: Fmoc solid-phase peptide synthesis; 2-chlorotrityl chloride resin; HBTU, HOBt, DIPEA
Conditions: whole synthesis, scale 0.10 mmol, trifluoroacetate salt

PEPTIDE1{K.K.L.F.K.K.I.L.K.Y.L.K}$$$$V2.0
isolated mass: 155 mg
